# Data from PubChem BioAssay AID504834 (National Center for Advancing Translational Sciences (NCATS), 2011).
# Out of some 320,000 compounds screened, about 22,000 (6.9%) were called active. The shares of active, inactive and inconclusive entries below differ from those in the screen. The call rests on the fitted dose curve; in most records, active means well fitted inhibition curve with a large enough effect; inconclusive means small, poorly fitted or top-dose-only effect, or another doubt; inactive means no such curve, though single readings can be large or run the other way. A potency beside an inconclusive call is a rough fit, not a confirmed value.
# Assay: Primary qHTS for delayed death inhibitors of the malarial parasite plastid, 96 hour incubation
# Conditions: P. falciparum luciferase reporter growth; series mostly up to 28.7 µM
# Summary of the method: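 Plates of compound plus infected erythrocytes (2% hematocrit, 0.05% parasitemia final) incubate 96 hours, 37 C, 5% CO2. Detection reagent added; reduced luminescence from the parasites' luciferase reporter flags inhibition.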
# Potency means the concentration at half of the fitted maximal effect.
row,Compound,Potency
1,COc1cc(CNC(C)C)ccc1OCC(=O)Nc1cccc2ccccc12,"inconclusive: 2.94 µM [inhibitor, full curve]"
2,C=CCNC(=O)CN1N=C(c2ccc(C)cc2)CCC1=O,"inconclusive: 18.5 µM [inhibitor, single point]"
3,COC(=O)CCCC(=O)N1CCCC(C(=O)c2ccc(OC)cc2C)C1 (stereo not drawn),active: 14.7 µM
4,O=C(Nc1ccnn1C1CCN(Cc2ccc(Cl)cc2)CC1)C1CCCC1,"inconclusive: 9.28 µM [inhibitor, partial curve]"
5,CCC(=O)OC1c2ccccc2C(=O)N1Cc1ccccc1 (stereo not drawn),"inconclusive: 18.5 µM [inhibitor, single point]"
6,Cc1cc(Br)ccc1SCC(=O)N1CCN(S(=O)(=O)c2ccccc2)CC1,"inconclusive: 18.5 µM [inhibitor, single point]"
7,CN1CCCN(Cc2ccccc2C(F)(F)F)CC1,"inconclusive: 13.1 µM [inhibitor, single point]"
8,Cc1cc(/C=N/Nc2ccc([N+](=O)[O-])cn2)c(C)n1-c1ccc(C(=O)O)cc1,"inconclusive: 16.5 µM [inhibitor, single point]"
9,O=C(c1ccco1)N1CCN(C(=O)C(c2ccccc2)c2ccccc2)CC1,"inconclusive: 16.5 µM [inhibitor, partial curve, poor fit]"
10,O=S(=O)(c1ccc(NC(=S)N/N=C/c2ccc(N3CCOCC3)cc2)cc1)N1CCOCC1,active: 5.86 µM
11,O=[N+]([O-])c1ccc(/C=[N+](\[O-])[C@@H]2CCCC[C@@H]2/[N+]([O-])=C/c2ccc([N+](=O)[O-])o2)o1,"inconclusive: 11.7 µM [inhibitor, single point]"
12,Cc1nc(CCNC(=O)C2CCC(=O)N(Cc3ccc(Cl)cc3)C2)sc1C (stereo not drawn),inactive
13,O=C(NC(=S)NNC(=O)[C@H]1C[C@@H]1c1ccccc1)c1ccc(F)cc1,"inconclusive: 10.4 µM [inhibitor, single point]"
14,O=C(CN1CCN(C(=O)c2cccs2)CC1)NC1CCCCC1,"inconclusive: 0.0928 µM [inhibitor, full curve]"
15,CC(C)CNC(=S)NNC(=O)CC(C)O (stereo not drawn),"inconclusive: 9.28 µM [inhibitor, single point]"
16,Cc1cccn2cc(CCNC(=O)c3ccc(Br)o3)nc12,"inconclusive: 20.8 µM [inhibitor, partial curve, poor fit]"
17,O=C(CCc1ccc(S(=O)(=O)N2CCOCC2)cc1)Nc1cc(Cl)ccc1N1CCOCC1,inactive
18,O=S1(=O)CCC(NC(=S)NC2CCS(=O)(=O)C2)C1 (stereo not drawn),inactive
19,Cc1ccn2cc(C(=O)Nc3cccc(C(=O)NC4CC4)c3)nc2c1,"inconclusive: 10.4 µM [inhibitor, single point]"
20,CN(C)c1ccc(/C=N/NC(=O)c2ccc(Cl)cc2)cc1,inactive
21,Cc1ccc(C(=O)N2CCN(C3c4cccc5cccc(c45)C3NS(=O)(=O)c3ccccc3)CC2)cc1 (stereo not drawn),"inconclusive: 2.94 µM [inhibitor, full curve, poor fit]"
22,COc1ccc(CCNC(=O)C2CC(=O)N(C3CCCCCCC3)C2)cc1OC (stereo not drawn),"inconclusive: 14.7 µM [inhibitor, single point]"
23,CCOc1cccc2cc(-c3csc(NC(=O)CCC(=O)NCCN4CCCCC4C)n3)c(=O)oc12 (stereo not drawn),"inconclusive: 0.928 µM [inhibitor, partial curve, poor fit]"

# Five structures from above, arranged by SMILES length, ascending.
row,Compound,Potency
15,CC(C)CNC(=S)NNC(=O)CC(C)O (stereo not drawn),"inconclusive: 9.28 µM [inhibitor, single point]"
20,CN(C)c1ccc(/C=N/NC(=O)c2ccc(Cl)cc2)cc1,inactive
19,Cc1ccn2cc(C(=O)Nc3cccc(C(=O)NC4CC4)c3)nc2c1,"inconclusive: 10.4 µM [inhibitor, single point]"
22,COc1ccc(CCNC(=O)C2CC(=O)N(C3CCCCCCC3)C2)cc1OC (stereo not drawn),"inconclusive: 14.7 µM [inhibitor, single point]"
10,O=S(=O)(c1ccc(NC(=S)N/N=C/c2ccc(N3CCOCC3)cc2)cc1)N1CCOCC1,active: 5.86 µM

# The list goes on:

row,Compound,Potency
1,O=C(NC(NCc1cccnc1)C(Cl)(Cl)Cl)c1cccc2ccccc12 (stereo not drawn),inactive
2,Nc1nc(SCC(=O)Nc2ccc([N+](=O)[O-])cc2)[nH]c(=O)c1NC(=O)c1ccc(Br)cc1,"inconclusive: 18.5 µM [inhibitor, single point]"
3,Cc1cccc(N2CCN(C(=O)c3ccc4c(c3)c(C)c(C)n4C)CC2C)c1 (stereo not drawn),inactive
4,CN(C)C(=O)CSc1n[nH]c(=O)n1CCc1ccccc1,inactive
5,COc1ccc(OCc2cc(C(=O)N3C[C@H]4CC[C@H]3C4)no2)c(Cl)c1,inactive
6,Cc1sc2nc(CSCC(=O)Nc3ccc(N4CCOCC4)cc3)[nH]c(=O)c2c1C,"inconclusive: 2.94 µM [inhibitor, full curve, poor fit]"
7,COc1ccc(OC)c(-c2cc(C(=O)NC3CCCC3)c3ccccc3n2)c1,"inconclusive: 18.5 µM [inhibitor, single point]"
8,CC(=O)Nc1cc(C(=O)N2CCc3ccccc3C2)ccc1Sc1ccc(C)cc1,"inconclusive: 18.5 µM [inhibitor, single point]"
9,O=C1C(C=NCCCN2CCOCC2)=C(O)c2ccccc21,"inconclusive: 18.5 µM [inhibitor, single point]"
10,COc1ccccc1NC(=O)Cn1cncc1-c1ccc([N+](=O)[O-])cc1,inactive
11,COc1cc(NC(=O)COC(=O)c2ccccc2SCC(=O)N2CCCC2)cc(OC)c1,inactive
12,CCc1c(C)nc(N)n2c(SCC(=O)N3CCCC(C)C3)nnc12 (stereo not drawn),inactive
13,Cc1ccc(NC(=O)COc2ccccc2C(N)=O)cc1S(=O)(=O)N1CCCCCC1,active: 4.65 µM
14,CC(=O)Nc1ccc(CNc2ncnc3ccc(-c4c(C)noc4C)cc23)cc1,"inconclusive: 16.5 µM [inhibitor, single point]"
15,CCN1CCN(c2cc(C)c3cc(NC(=O)c4ccccc4F)ccc3n2)CC1,active: 4.65 µM
16,COc1ccc(-c2nnc(NC(=O)Cc3ccccc3)o2)cc1,"inconclusive: 11.7 µM [inhibitor, partial curve, poor fit]"
17,Cc1ccc(S(=O)(=O)NCC(c2cccnc2)N2CCN(Cc3ccccc3)CC2)cc1 (stereo not drawn),"inconclusive: 1.04 µM [inhibitor, full curve, poor fit]"
18,CCCCN1CC(=O)N2[C@H]3c4cc(Cl)ccc4OC[C@@H]3[C@H](c3ccccc3)[C@]2(C)C1=O,"inconclusive: 2.94 µM [inhibitor, full curve, poor fit]"
19,O=C(COC(=O)C1=COCCO1)Nc1cc(S(=O)(=O)N2CCCCC2)ccc1Cl,"inconclusive: 10.4 µM [inhibitor, partial curve]"
20,CCC(=O)N1CCC2(CC1)Oc1ccc(Cl)cc1C(=O)C21CC(c2ccc(Cl)cc2)=NO1 (stereo not drawn),"inconclusive: 18.5 µM [inhibitor, single point]"
21,CC1=C(c2ccccc2)C(=S)NC(C)(C)C1,"inconclusive: 1.31 µM [inhibitor, partial curve, poor fit]"
22,O=C(CSc1nc2ccccc2c(=O)n1CCC(=O)N1CCN(c2ccccc2)CC1)NCC1CCCO1 (stereo not drawn),"inconclusive: 13.1 µM [inhibitor, partial curve]"
23,CC(=O)c1ccc(-c2ccc(C(=O)Nc3nc(C)c(C(C)=O)s3)o2)cc1,inactive

row,Compound,Potency
1,O=C1CC(c2ccccc2)CN1C(=O)c1ccccc1 (stereo not drawn),inactive
2,COc1cc2c(C(=O)N(C)c3ccc(F)cc3)cn(C)c(=O)c2cc1OC,"inconclusive: 4.15 µM [inhibitor, single point]"
3,COc1ccc(Cl)cc1NC(=O)CCNS(=O)(=O)c1cccc2nonc12,active: 10.4 µM
4,O=[N+]([O-])c1ccccc1S(=O)(=O)N1CCN(C2CCCC2)CC1,"inconclusive: 8.28 µM [inhibitor, partial curve, poor fit]"
5,Nc1n[nH]c(N)c1N=Nc1cccc(F)c1,inactive
6,Cc1cccnc1,"inconclusive: 5.86 µM [inhibitor, single point]"
7,Cc1cccc(OCC(=O)NC2CCCc3ccccc32)c1C (stereo not drawn),"inconclusive: 18.5 µM [inhibitor, single point]"
8,CC(=O)c1cccc(NC(=O)CSc2ccc(-c3sc(C)nc3C)nn2)c1,active: 13.1 µM
9,CCOc1ccc(CN(C)CC(=O)Nc2cc(OC)c([N+](=O)[O-])cc2C)cc1,"inconclusive: 9.28 µM [inhibitor, single point]"
10,O=C(CNC(=O)C(c1ccccc1)c1ccccc1)OCc1ccccc1,"inconclusive: 0.522 µM [inhibitor, full curve, poor fit]"
11,CCC1CCCCN1C(=O)CSc1nnc(-c2ccc(Cl)s2)o1 (stereo not drawn),inactive
12,O=C(Nc1ccccc1)NC1CCN(Cc2c(F)cccc2Cl)CC1,inactive
13,Cc1ccc(-c2cc(C(F)F)n3ncc(C(=O)N4CCC5(CC4)OCCO5)c3n2)cc1,"inconclusive: 13.1 µM [inhibitor, single point]"
14,COCCn1c(-c2ccc(Cl)cc2)nc2oc3cc(OC)ccc3c(=O)c2c1=O,"inconclusive: 11.7 µM [inhibitor, partial curve, poor fit]"
15,CCCCC(CC)COS(=O)(=O)O (stereo not drawn),inactive
16,Cn1c(=O)c2c3c(sc2n2c(SCC(N)=O)nnc12)CC(C(C)(C)C)CC3 (stereo not drawn),"inconclusive: 0.0828 µM [inhibitor, full curve, poor fit]"
17,COc1ccc(NC(=O)C2CCCN(C(=O)c3ccc(Cl)cc3)C2)cc1Cl (stereo not drawn),"inconclusive: 16.5 µM [inhibitor, single point]"
18,Cn1c(-c2ccccc2)cnc1SCc1nc2ccccc2c(=O)[nH]1,active: 2.33 µM
19,C[C@H]1[C@H](OC(=O)CCC(=O)NCc2ccc(C(=O)O)cc2)O[C@@H]2O[C@@]3(C)CC[C@H]4[C@H](C)CC[C@@H]1C24OO3,active: 0.0033 µM
20,CCOc1ccccc1CNC(=O)CCC(=O)N1Cc2ccccc2Oc2ncccc21,active: 9.28 µM
21,CCCCC[C@H]1CN(CCc2ccccc2)C(=O)[C@@H]1CC(=O)NCc1ccc(OC)cc1,inactive
22,CN(C)CCCN(C(=O)c1ccc(S(=O)(=O)N(C)Cc2ccccc2)cc1)c1nc2cc3c(cc2s1)OCO3,"inconclusive: 13.1 µM [inhibitor, single point]"
